From publication PMC8406302 come the findings set out here.

These are yes or no findings as the source states them, for the method shown. Binding seen in cells or lysates may run through a third protein. Some results given as binding are weak or reduced against the parent protein; the word gives no strength. Sequences can lack the tags named with a protein.

The target of the assay is T1, His-tagged ABC transporter NisT (Lactococcus lactis) (UniProt Q03203).
T1 sequence: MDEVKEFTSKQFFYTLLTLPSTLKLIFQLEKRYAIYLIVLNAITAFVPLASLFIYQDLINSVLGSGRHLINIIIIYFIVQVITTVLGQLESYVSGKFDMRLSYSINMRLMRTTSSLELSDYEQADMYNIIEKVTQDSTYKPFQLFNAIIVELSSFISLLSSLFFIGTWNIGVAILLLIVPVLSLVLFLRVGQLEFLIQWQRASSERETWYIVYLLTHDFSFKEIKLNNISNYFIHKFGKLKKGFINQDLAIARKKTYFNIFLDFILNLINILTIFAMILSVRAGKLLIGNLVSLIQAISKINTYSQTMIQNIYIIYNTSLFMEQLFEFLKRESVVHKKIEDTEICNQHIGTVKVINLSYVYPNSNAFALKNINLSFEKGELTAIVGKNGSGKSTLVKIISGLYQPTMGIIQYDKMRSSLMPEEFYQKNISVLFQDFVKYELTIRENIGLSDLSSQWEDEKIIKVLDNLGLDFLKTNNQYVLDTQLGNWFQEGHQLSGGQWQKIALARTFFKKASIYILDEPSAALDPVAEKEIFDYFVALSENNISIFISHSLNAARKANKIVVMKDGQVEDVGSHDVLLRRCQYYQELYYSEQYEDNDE
Put plainly: pull-down; NisTHis held on Ni-NTA agarose from the membrane fraction solubilised with 1% DDM; 4°C; 50 mM NaH2PO4, 300 mM NaCl, pH 8.0, 0.1% DDM; wash 20 mM imidazole, elution 250 mM imidazole; elution 2 blotted with anti-His, anti-NisB and anti-NisC antibodies.

B1: cyclase NisC (enzyme, UniProt Q03202 1-418)
chain: MRIMMNKKNIKRNVEKIIAQWDERTRKNKENFDFGELTLSTGLPGIILMLAELKNKDNSKIYQKKIDNYIEYIVSKLSTYGLLTGSLYSGAAGIALSILHLREDDEKYKNLLDSLNRYIEYFVREKIEGFNLENITPPDYDVIEGLSGILSYLLLINDEQYDDLKILIINFLSNLTKENNGLISLYIKSENQMSQSESEMYPLGCLNMGLAHGLAGVGCILAYAHIKGYSNEASLSALQKIIFIYEKFELERKKQFLWKDGLVADELKKEKVIREASFIRDAWCYGGPGISLLYLYGGLALDNDYFVDKAEKILESAMQRKLGIDSYMICHGYSGLIEICSLFKRLLNTKKFDSYMEEFNVNSEQILEEYGDESGTGFLEGISGCILVLSKFEYSINFTYWRQALLLFDDFLKGGKRK
As for B1, the binding entry is “binds”.

B2: dehydratase NisB (enzyme, UniProt P20103 1-993)
chain: MIKSSFKAQPFLVRNTILCPNDKRSFTEYTQVIETVSKNKVFLEQLLLANPKLYDVMQKYNAGLLKKKRVKKLFESIYKYYKRSYLRSTPFGLFSETSIGVFSKSSQYKLMGKTTKGIRLDTQWLIRLVHKMEVDFSKKLSFTRNNANYKFGDRVFQVYTINSSELEEVNIKYTNVYQIISEFCENDYQKYEDICETVTLCYGDEYRELSEQYLGSLIVNHYLISNLQKDLLSDFSWNTFLTKVEAIDEDKKYIIPLKKVQKFIQEYSEIEIGEGIEKLKEIYQEMSQILENDNYIQIDLISDSEINFDVKQKQQLEHLAEFLGNTTKSVRRTYLDDYKDKFIEKYGVDQEVQITELFDSTFGIGAPYNYNHPRNDFYESEPSTLYYSEEEREKYLSMYVEAVKNHNVINLDDLESHYQKMDLEKKSELQGLELFLNLAKEYEKDIFILGDIVGNNNLGGASGRFSALSPELTSYHRTIVDSVERENENKEITSCEIVFLPENIRHANVMHTSIMRRKVLPFFTSTSHNEVLLTNIYIGIDEKEKFYARDISTQEVLKFYITSMYNKTLFSNELRFLYEISLDDKFGNLPWELIYRDFDYIPRLVFDEIVISPAKWKIWGRDVNSKMTIRELIQSKEIPKEFYIVNGDNKVYLSQKNPLDMEILESAIKKSSKRKDFIELQEYFEDENIINKGEKGRVADVVVPFIRTRALGNEGRAFIREKRVSVERREKLPFNEWLYLKLYISINRQNEFLLSYLPDIQKIVANLGGNLFFLRYTDPKPHIRLRIKCSDLFLAYGSILEILKRSRKNRIMSTFDISIYDQEVERYGGFDTLELSEAIFCADSKIIPNLLTLIKDTNNDWKVDDVSILVNYLYLKCFFQNDNKKILNFLNLVSTKKVKENVNEKIEHYLKLLKVNNLGDQIFYDKNFKELKHAIKNLFLKMIAQDFELQKVYSIIDSIIHVHNNRLIGIERDKEKLIYYTLQRLFVSEEYMK
Consider B2, for which the binding entry is given as “binds”.
